Results are given in words; binding and its absence hold for the method and conditions named. Binding seen in cells or lysates may run through a third protein. Some binding calls cover weakened binding; strength is not graded here.
T1: leucine-rich repeat G protein-coupled receptor 4 (LGR4) (mouse (endogenous in Neuro-2a)) (UniProt A2ARI4)
T1 sequence: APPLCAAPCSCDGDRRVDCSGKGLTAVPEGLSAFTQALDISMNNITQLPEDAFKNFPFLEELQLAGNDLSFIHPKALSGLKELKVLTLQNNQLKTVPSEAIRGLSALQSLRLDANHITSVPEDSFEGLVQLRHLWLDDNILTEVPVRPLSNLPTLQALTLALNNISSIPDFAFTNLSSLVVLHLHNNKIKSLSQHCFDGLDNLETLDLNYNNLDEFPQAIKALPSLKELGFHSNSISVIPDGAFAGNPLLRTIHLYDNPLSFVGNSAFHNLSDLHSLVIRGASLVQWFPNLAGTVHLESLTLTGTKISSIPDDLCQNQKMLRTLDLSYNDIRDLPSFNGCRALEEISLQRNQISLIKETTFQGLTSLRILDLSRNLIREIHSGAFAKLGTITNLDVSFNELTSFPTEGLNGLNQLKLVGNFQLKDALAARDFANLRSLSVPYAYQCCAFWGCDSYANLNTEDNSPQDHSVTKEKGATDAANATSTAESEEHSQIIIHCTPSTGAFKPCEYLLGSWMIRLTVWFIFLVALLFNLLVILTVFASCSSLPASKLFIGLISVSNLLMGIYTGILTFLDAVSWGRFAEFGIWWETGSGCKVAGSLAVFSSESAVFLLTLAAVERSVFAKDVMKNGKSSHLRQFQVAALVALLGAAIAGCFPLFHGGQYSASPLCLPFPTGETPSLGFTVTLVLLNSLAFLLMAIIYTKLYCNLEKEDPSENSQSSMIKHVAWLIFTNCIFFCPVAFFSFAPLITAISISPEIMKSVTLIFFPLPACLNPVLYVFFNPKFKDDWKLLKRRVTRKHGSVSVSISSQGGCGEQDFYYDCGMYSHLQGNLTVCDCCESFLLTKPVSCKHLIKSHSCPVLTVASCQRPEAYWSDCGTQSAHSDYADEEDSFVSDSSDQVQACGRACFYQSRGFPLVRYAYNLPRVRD

By UniProt entry, the sequences of proteins in these tests, tags left out.
UniProt Q9DC51: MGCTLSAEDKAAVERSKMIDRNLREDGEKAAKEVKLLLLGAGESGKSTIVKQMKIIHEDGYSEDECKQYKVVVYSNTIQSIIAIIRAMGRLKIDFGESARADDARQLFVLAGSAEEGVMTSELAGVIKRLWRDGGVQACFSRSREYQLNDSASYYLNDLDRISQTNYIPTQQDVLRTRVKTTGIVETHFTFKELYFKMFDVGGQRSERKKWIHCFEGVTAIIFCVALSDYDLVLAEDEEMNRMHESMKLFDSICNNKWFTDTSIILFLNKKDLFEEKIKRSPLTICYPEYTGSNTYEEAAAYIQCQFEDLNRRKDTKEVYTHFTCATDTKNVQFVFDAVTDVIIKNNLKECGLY
UniProt P08752: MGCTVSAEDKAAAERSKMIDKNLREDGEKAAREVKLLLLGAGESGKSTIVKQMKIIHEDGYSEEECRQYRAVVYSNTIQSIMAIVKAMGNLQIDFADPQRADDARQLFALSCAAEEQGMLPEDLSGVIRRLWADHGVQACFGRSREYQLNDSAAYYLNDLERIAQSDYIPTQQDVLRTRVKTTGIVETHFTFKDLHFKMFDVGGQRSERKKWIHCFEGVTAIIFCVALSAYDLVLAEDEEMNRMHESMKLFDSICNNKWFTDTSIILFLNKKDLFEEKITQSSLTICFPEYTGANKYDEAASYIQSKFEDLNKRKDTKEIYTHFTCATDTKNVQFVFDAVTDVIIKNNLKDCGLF
UniProt B2RSH2: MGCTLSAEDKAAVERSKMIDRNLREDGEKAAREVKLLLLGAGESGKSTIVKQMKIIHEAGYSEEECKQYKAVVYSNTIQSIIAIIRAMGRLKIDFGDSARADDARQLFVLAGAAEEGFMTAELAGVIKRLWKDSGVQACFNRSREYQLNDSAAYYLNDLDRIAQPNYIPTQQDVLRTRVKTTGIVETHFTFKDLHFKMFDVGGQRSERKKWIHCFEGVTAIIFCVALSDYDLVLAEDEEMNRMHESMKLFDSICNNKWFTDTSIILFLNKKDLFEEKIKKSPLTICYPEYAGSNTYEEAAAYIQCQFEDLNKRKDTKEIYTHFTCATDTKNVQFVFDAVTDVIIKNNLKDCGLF

B1: Gab1 (protein, UniProt Q9QYY0 1-695)
chain: MSGGEVVCSGWLRKSPPEKKLKRYAWKRRWFVLRSGRLTGDPDVLEYYKNDHAKKPIRIIDLNLCQQVDAGLTFNKKEFENSYIFDINTIDRIFYLVADSEEDMNKWVRCICDICGFNPTEEDPVKPLTGSSQAPVDSPFAISTAPASSQMEASSVALPPPYQVISLPPHPDTLGLQDDPQDYLLLINCQSKKPEPNRTLFDSAKPTFSETDCNDNVPSHQTPASSQSKHGMNGFFQQQMMYDCPPSRLTSVSGESSLYNLPRSYSHDVLPKESPSSTEADGELYTFNTPSGTAGVETQMRHVSISYDIPPTPGNTYQIPRTFPESTLGQSSKLDTIPDIPPPRPPKPHPTHDRSPVETCGVPRTASDTDSSYCIPPPAGMTPSRSNTISTVDLNKLRKDASSQDCYDIPRTFPSDRSSSLEGFHSQYKIKSVLTAGGVSGEELDENYVPMNPNSPPRQHSGSFTEPIQEPNYVPMTPGTFDFSSFGMQVPPPAHMGFRSSPKTPPRRPVPVADCEPPPVDRNLKPDRKVKPAPLDIKPLSEWEELQAPVRSPITRSFARDSSRFPMSPRPDSVHSTTSSSDSHDSEENYVPMNPNLSGEDPNLFASNSLDGGSSPMNKPKGDKQVEYLDLDLDSGKSTPPRKQKSSGSGSSMADERVDYVVVDQQKTLALKSTREAWTDGRQSTESETPTKNVK

molecular target: T1, leucine-rich repeat G protein-coupled receptor 4 (LGR4) (mouse (endogenous in Neuro-2a)); test: co-IP; Neuro-2a cells treated with RSPO3 (50 ng/mL) and cultivated for 5-15 min; LGR4 association with Gab1 and Gαi1/3 examined by co-immunoprecipitation; protocol referred to previous studies

binding | Molecule
binds | Gαi3 (from UniProt Q9DC51 1-354)
no binding | Gαi2 (from UniProt P08752 1-355)
binds | Gαi1 (from UniProt B2RSH2 1-354)
binds | B1
